About 3,700 (7%) of roughly 53,000 sequences were called active.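 How the source made its calls: active means gene knockdowns whose robust z-score for IL-1 alpha signal is at least 2 or at most -2, so actives lie on both sides; inactive means the rest.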 Some of the results follow.

This experiment in a line: Components of the Cytosolic LPS Sensing Pathway: Gene Identification via Genome-wide siRNA Screen.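 Further: robust z of the log signal after scaling to non-targeting control siRNA wells of the plate.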 The following applies: RAW264.7 macrophages, IL-1a HTRF, actives lie on both sides, screened at 100 nM (by protocol), cells primed 5 h with Pam3CSK4 first. The procedure, abridged:
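Three distinct siRNAs per gene were tested singly at 100 nM in RAW264.7 macrophages. Following Pam3CSK4 priming and 24 hour LipidA transfection, IL-1a secretion was read by HTRF.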
For orientation: TR-FRET usually uses a lanthanide donor and a delayed reading to cut background.
Consider “GCUAUUGCCAACCAAGUCUTT against A730045E13Rik”, for which the z-score is inactive: -1.87. Regarding GGACUUGAGAGCAUUUGUGTT against Procr, the z-score is inactive: -0.314.

For the sequence GGCUCAGAUUCUCAACAGATT against Emx2, the z-score was inactive: -1.67. Take “CCCGUAUCUUUUUAGCUAATT against A630038E17Rik”: the z-score was inactive: 0.35. For GGUUUAUUGACAAGAAGGATT against Atg14, the z-score was inactive: 0.331. As to GGAAAACUUCCAUAAAGAGTT against Bin1, the z-score is inactive: -0.42.

Turning to GGCUUAUAAAAUUCGGUCATT against Olig1, the z-score is inactive: 0.962. GGAAGAGUCAAUUUUGAUGTT against Gfpt1: the z-score is inactive: 0.49. GCCGAUUACUAUCCCGAGATT against Rasgef1c: the z-score is inactive: -0.507. Consider CGUUAUAAUGCAUACUGUUTT against Fbn1, for which the z-score is inactive: -0.931. With GGAUUCAUCACUGACUACATT against Ddc, the z-score was inactive: -0.654. With GCAAGUCACGAAAGAAGAGTT against Ttll4, the z-score was inactive: 0.62. Consider GCGUGAAGACAACAAGCAGTT against Myo1c, for which the z-score is inactive: -0.0758.

Consider GGACUCAUGAAAUCAUACCTT against Spry1, for which the z-score was inactive: 0.0325. As for GGUUCCAUGUGACAGUAGCTT against Dok7, the z-score is inactive: -0.0194. Next, GGCACAACAACUUGAAUGGTT against Man2c1: inactive: -1.28.

Take GGUGAUGAAAGGGAAUGGCTT against Rnf25: the z-score was active: -2.53.

Regarding GGAGCAUUUAAGGUUUACUTT against Marchf5, the z-score is inactive: 0.942. Under GGAUUUGUUACGGUAGUUUTT against Slc30a9 stands inactive: -0.0677; under GGGAACUACAAGCAUCCAGTT against Adm, inactive: 1.32. Next, GGUUUUCCCAUGAAGCAAGTT against Rps6: inactive: -1.37; GGGAGGAGUAAUAAUCCCGTT against B3gnt2: inactive: -0.147. GGCUUAAGCAGACGUGUCATT against Lhx8: the z-score was active: -2.14.

On to GGCCUAUGUACCCUACCAATT against Enpp1, for which the z-score was inactive: -1.35. Turning to GGCACAAAGCAAGAUUACCTT against Cebpz, the z-score is inactive: 0.422. In the case of GGGAAGUUGUCAAUACCUGTT against Sra1, the z-score was inactive: 0.0642. Take GCCUCAACCUGAUUAUCACTT against Enpp7: the z-score is inactive: -0.0927. Regarding GGAGGUUGUGAUCUUGAAATT against Tbc1d23, the z-score was inactive: -0.000244. Turning to GGUGUUAAGACUCAGCUCATT against Micall2, the z-score is inactive: -1.49. For GGACACAGGGUCUCUUACATT against Msrb2, the z-score is inactive: -1.25. As for GGAGACAUCAAGAGUUCUGTT against H2-M10.1, the z-score is inactive: -0.121. Regarding GGACAAUGCCCUGUAUCAGTT against Clic3, the z-score is inactive: -0.822.

Consider GCAAUUGGUAAAGAUGAAATT against Sly, for which the z-score is inactive: -0.277. Next, GGUCAAGCUCUUCUGCCUCTT against Trim62: inactive: 0.764.

In the case of GGUUAUUGUUGAGAAUCCUTT against Gpkow, the z-score was inactive: 0.252. CGCAGAGAAGGACUAUCUUTT against Ush1c: the z-score was inactive: -1.58.

For the sequence GGACUCACGUCAAGAUGUUTT against Ckap2l, the z-score is inactive: -0.961. As for GCAUGUGAUUACCUUUGUATT against Btbd10, the z-score is inactive: 0.633. Regarding AACAGCAUCUUUGUGGUCCTT against Ins1, the z-score was inactive: -0.483. For the sequence GCCCAGAAUGCUCACUAAATT against Sln, the z-score was inactive: 0.491. For the sequence GGGAAAAUGCCAAGUGGAATT against Med8, the z-score is inactive: -1.75. Under GGCAGAUGUACUGAUUAAATT against Tmprss11g stands inactive: 1.05. For GGAGCAGAAGUCAAUCAGGTT against Myo1b, the z-score is inactive: 0.419. CGGCAAACUCAAGAAGCAGTT against Ccdc102a: the z-score is inactive: -1.6. Take GGAGGCUUAGGAUAAUUUATT against Proser1: the z-score was inactive: 0.83. Next, GGCAUUAUGAGCAUCUCGGTT against Tnfrsf11a: inactive: -0.394.

With GGGUCCUGCUCAACAUCAUTT against Strip1, the z-score is inactive: -1.79. For CCAGAUCCUAAAGUCUUUATT against Trpd52l3, the z-score was inactive: 0.677. On to GGAGCUGAGUCCUGAUGGATT against Apod, for which the z-score was inactive: 1.29. For CCCUUCUAAAAGCUAUAAGTT against Osbpl10, the z-score was inactive: -0.0668. As to GGAAUGGUGAUGGAGUGGATT against Ptges3l, the z-score was inactive: 1.19. As to GCACAGCUAACGGAAAACATT against Pfdn6, the z-score is inactive: 0.405. Consider “GGAAAAAUGAGCAGAAACUTT against 2700097O09Rik”, for which the z-score was inactive: -0.834. Next, GGUUACAGAAGAAUUAGAATT against Ift57: inactive: 9.9e-05; GCGGAGAAUAUCUUGCUUATT against Mab21l4: inactive: -0.428.

Regarding CGAUUUCAUAUUAACCAGCTT against Atad1, the z-score is inactive: -0.282.

As for GGUCUGGGAUACUAGAGCCTT against Prap1, the z-score is inactive: 0.902. Consider CCGAACCUUCAGCUACACATT against Keap1, for which the z-score is inactive: 0.0133. Regarding GGCCAAAGUCCAUUCAUUCTT against Olfr1120, the z-score was inactive: 1.31. On to GGCAUCAACUAAACAAUCCTT against Psip1, for which the z-score was inactive: 0.664.

In the case of GGCCAACAAUAUAAAAGACTT against Pus3, the z-score was inactive: -0.641. For GGUGAUCCUUCUUUUUUACTT against Sgo1, the z-score is active: -2.01. Next, CCCACCUUACAUAUAUUGATT against Srr: inactive: 0.25; GGCUGAGGUCACCAUCAUCTT against Carmil1: inactive: 0.0554; GGUCUACAGACUGGAUUCUTT against Vmn1r236: inactive: -0.308. Turning to GGCUCAAGUAUCUAAUCUUTT against Tpm4, the z-score is inactive: -0.371. Under GGAUUUGUCAAUGCAAUAATT against Olfr1012 stands active: -2.68; under CGGUGUCAUCAGUUGCUUATT against Ckap5, inactive: -0.316; under GGCACACAGCCCUCAAAUUTT against Mrpl30, inactive: -0.446. Consider GCAUUACUGUAGGUAAGAGTT against Olfr630, for which the z-score is inactive: -1.3.

For the sequence GGAGAUAUUGUAACUCGCCTT against Pcdhgb7, the z-score is inactive: 0.558. For GGUUCAACAUAUCCAUAGCTT against Vmn1r185, the z-score is inactive: -1.09. Under CCAAAUAACCUGCUACGAGTT against Ffar2 stands inactive: 0.905; under GGUCUCUAAAUCCUGCUUUTT against Vmn1r21, inactive: -0.554; under CGAUUGUUAAAGAGAUCAUTT against Pgk2, inactive: 0.472.

Regarding CCCAACACAAUAUUUGCCATT against Nfyc, the z-score was inactive: 0.019. For the sequence GGCAUCUGAUUUAAGUCCUTT against Ankhd1, the z-score was inactive: -1.44.

On to GGAAACACCUUCUUCAGCATT against Qrfprl, for which the z-score was inactive: -1.59. Turning to CCUGCUUAGGACCAUCGACTT against Lrrn2, the z-score was inactive: -0.0914.

On to GGUUAAACCCUCUUCUCAUTT against Uhrf2, for which the z-score is inactive: -0.645. In the case of CCUACAGUUUAUAAGCUUCTT against Olfr877, the z-score was inactive: 0.639. Regarding CGAGGGAUAAGAGUCUACGTT against Ubxn11, the z-score was inactive: 1.45. On to CCAGCCUAAUCAAAGACCUTT against Fam53b, for which the z-score is inactive: -1.38.

Regarding GGACACUGCAAAAGAGGAGTT against Defa4, the z-score is inactive: 1.37. For “GGCGAAAAGCCGUUCCAUUTT against E430018J23Rik”, the z-score was inactive: 0.664.

With CCGAAAUCAUCUGAGAGCGTT against Rhd, the z-score was inactive: 0.252. For the sequence “CGCUCUGCCACUUUACCUUTT against 2210010C04Rik”, the z-score is inactive: -0.0128. Take GGACUAUGGCUGCUGCUCATT against Dmrtc1a: the z-score is inactive: -0.0336. Turning to GGAUUCCUGUACAUAUAUUTT against Ube4b, the z-score is inactive: -0.501. Turning to GCUUUCAGAUGAUGACAAGTT against Cdc34, the z-score was inactive: 0.0219.

Consider CGCUUCAUUGAGGAUACAGTT against Acy1, for which the z-score is inactive: 0.0642. On to GGGCAAACGGAGGAAUGAATT against Slc35g3, for which the z-score is active: 2.47.

With GGAAAAUCACCUAUAAGAATT against Rabl2, the z-score is inactive: 0.249. GGUUUCAAAUAAAAAGGCATT against Lrrc23: the z-score is inactive: -0.893. Regarding GGCGAUAAGACAAAAAUGATT against Myom1, the z-score is inactive: -1.41. Take GCAAAAUUAUCAGUGAGGATT against Nt5c3b: the z-score is active: -2.54. Consider “GCUCACAAACUGAUUCCUUTT against 2700081O15Rik”, for which the z-score was inactive: 0.714. As for GGUCACGAUUACUUCCCUGTT against Pcdha12, the z-score was inactive: 0.744. On to CCUAGAAAGAGGACUCAGATT against Abhd12, for which the z-score was inactive: -0.293. As for GGCAGUGACACAGAAAUGATT against Tnks, the z-score was inactive: -0.115. As to GCUUUCUGAUUCAAAGAUGTT against Dsc3, the z-score is inactive: -0.175.

Consider GCUAACCAGUCAGUUGAUCTT against Mocs1, for which the z-score is inactive: -0.086.

On to GGCCUGUGAGCUAUGUAUCTT against Krtap26-1, for which the z-score was inactive: -0.792. With GGGUUUAGACUGAGAAAUATT against Eif3i, the z-score is inactive: 0.856.

In the case of GGCUUCAUCCACAUGCACUTT against Gja5, the z-score is inactive: 0.348.

As to GGAUUUUUAUUCCAGAAGGTT against Fundc1, the z-score was inactive: -0.781.

The values above are taken from PubChem BioAssay AID1508600 (Functional Genomics Laboratory (NCATS/FGL), 2020).
